Tests used:
Assay type in all cases: functional, cell-based
SF-268 = experiment: Cytotoxicity against human SF268 cells after 72 hrs by MTS reduction assay; details: SF-268, 72 h
NCI-H460 = experiment: Cytotoxicity against human NCI-H460 cells after 72 hrs by MTS reduction assay; details: NCI-H460, 72 h
MCF7 = experiment: Cytotoxicity against human MCF7 cells after 72 hrs by MTS reduction assay; details: MCF7, 72 h

Measured: IC50

O=C1C[C@@H](c2ccccc2)Oc2cc(O)ccc21
> 50 µM: all assays above
